The results in this text go back to patent US6996429B2, “Apparatus and method for detecting flinch response to nociceptive agents” (Regents of the Univeristy of California, San Diego, priority 2001, dated 2006).

The structures appear in SMILES notation.

In this assay the test system is formalin induced flinching in the rat. Briefly: Effects of systemic and spinal drugs on formalin evoked flinching behavior (automated formalin test). Format: in vivo. The settings on record: from % MPE dose effect curves; for ED50 Phase II (Mean and 95% confidence intervals): Phase II (10–60 min); for ED50 Phase IIA (Mean and 95% confidence intervals): Phase IIA (10–40 min).

On to `CN1CC[C@]23c4c5ccc(O)c4O[C@H]2[C@@H](O)C=C[C@H]3[C@H]1C5.O=S(=O)(O)O` [Morphine, morphine sulfate], for which, for the setting “IP (intraperitoneal)”, the “ED50 Phase II (Mean and 95% confidence intervals)” value is given as 4.7 (7888-.003) mg; the “ED50 Phase IIA (Mean and 95% confidence intervals)” value is on record as 1.8 (1.1–2.9) mg. Also, under “IT (intrathecal)”, the “ED50 Phase II (Mean and 95% confidence intervals)” value was 1.6 (0.6–4.7) μg; the “ED50 Phase IIA (Mean and 95% confidence intervals)” value was 1.5 (0.6–3.6) μg.
